# Assay results as given in PMC10542180.
# Amino acid sequences for entries named in this document (tags omitted).
# UniProt B0XS89: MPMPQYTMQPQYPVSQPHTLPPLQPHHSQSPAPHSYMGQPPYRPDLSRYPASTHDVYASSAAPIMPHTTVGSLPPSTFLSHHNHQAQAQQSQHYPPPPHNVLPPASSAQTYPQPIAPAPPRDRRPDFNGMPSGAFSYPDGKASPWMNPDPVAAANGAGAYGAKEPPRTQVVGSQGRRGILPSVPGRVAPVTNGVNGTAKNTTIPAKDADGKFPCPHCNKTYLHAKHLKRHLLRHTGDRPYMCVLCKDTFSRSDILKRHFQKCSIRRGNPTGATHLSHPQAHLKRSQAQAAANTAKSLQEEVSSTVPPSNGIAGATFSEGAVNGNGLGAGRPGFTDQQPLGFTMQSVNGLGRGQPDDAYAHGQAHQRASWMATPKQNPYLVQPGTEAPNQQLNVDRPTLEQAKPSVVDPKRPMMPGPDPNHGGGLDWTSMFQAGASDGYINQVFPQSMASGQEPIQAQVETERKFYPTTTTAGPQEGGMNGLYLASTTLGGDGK
# UniProt Q4WI89: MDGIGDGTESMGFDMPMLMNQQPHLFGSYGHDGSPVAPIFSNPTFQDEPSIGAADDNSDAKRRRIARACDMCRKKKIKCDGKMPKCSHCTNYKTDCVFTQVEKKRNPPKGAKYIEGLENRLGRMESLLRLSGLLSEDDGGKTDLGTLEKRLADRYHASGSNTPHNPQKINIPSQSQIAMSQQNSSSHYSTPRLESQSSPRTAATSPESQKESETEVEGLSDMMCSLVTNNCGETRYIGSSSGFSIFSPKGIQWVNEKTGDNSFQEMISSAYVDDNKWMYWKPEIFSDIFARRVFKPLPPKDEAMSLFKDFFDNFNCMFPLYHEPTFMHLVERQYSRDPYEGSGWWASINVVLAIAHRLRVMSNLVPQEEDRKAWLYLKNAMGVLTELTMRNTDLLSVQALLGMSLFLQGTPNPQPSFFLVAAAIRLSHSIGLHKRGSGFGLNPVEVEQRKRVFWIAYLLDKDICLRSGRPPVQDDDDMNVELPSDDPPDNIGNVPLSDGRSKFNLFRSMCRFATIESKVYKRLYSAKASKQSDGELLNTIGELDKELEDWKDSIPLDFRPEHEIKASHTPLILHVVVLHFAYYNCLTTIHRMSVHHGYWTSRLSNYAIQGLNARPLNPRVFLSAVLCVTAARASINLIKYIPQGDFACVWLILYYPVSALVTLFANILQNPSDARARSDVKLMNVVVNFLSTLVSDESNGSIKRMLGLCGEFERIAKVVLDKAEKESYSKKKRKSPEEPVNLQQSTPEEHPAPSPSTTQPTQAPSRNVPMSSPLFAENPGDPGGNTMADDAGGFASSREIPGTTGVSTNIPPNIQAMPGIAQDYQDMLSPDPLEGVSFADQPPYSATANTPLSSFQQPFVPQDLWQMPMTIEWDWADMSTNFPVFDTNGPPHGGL
# These are yes or no findings as the source states them, for the method shown. In cells and extracts the contact can be indirect. Some results given as binding are weak or reduced against the parent protein; the word gives no strength.
# Molecular target: FLAG-tagged FfmA (Aspergillus fumigatus) (UniProt B0XS89)
# Test: co-IP; whole cell protein extract of the DO-FLAG-ffmA strain prepared under nondenaturing conditions; immunoprecipitated with anti-FLAG M2 antibody (or no primary antibody), recovered with anti-mouse antibody on beads; western blot with anti-AtrR and anti-FLAG
substance,measurement,value
AtrR (from UniProt Q4WI89 1-895),binding,binds
